Experimental data taken from the supplement of paper PMC12819154, “High-throughput peptide-centric local stability assay extends protein–ligand identification to membrane proteins, tissues and bacteria” (Nature Structural & Molecular Biology, 2025).
Some of the results follow. Small differences around the control level are noise.

Protein sequences, listed by entry. Tags and fused reporters are not part of them. Lines headed by an entry give the natural chain unless they say otherwise; changes in a name come on top.
UniProt Q91YR5: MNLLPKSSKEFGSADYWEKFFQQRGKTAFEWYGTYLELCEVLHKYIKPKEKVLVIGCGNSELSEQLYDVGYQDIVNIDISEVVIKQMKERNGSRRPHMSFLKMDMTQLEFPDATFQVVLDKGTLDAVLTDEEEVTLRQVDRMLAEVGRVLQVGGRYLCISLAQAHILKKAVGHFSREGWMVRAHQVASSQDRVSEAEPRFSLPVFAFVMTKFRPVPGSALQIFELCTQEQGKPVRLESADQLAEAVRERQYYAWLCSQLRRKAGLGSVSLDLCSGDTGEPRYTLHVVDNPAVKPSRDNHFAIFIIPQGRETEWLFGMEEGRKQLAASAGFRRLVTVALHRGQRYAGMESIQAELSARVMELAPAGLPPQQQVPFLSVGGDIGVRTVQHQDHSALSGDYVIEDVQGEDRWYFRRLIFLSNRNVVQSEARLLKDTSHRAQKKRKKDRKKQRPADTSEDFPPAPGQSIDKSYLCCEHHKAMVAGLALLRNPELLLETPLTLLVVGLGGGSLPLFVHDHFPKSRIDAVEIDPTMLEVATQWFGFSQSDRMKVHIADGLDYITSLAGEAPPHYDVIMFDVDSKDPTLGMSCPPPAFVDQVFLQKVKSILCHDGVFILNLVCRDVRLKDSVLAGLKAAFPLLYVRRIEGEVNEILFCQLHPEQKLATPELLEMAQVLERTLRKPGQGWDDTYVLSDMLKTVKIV
UniProt Q91W64: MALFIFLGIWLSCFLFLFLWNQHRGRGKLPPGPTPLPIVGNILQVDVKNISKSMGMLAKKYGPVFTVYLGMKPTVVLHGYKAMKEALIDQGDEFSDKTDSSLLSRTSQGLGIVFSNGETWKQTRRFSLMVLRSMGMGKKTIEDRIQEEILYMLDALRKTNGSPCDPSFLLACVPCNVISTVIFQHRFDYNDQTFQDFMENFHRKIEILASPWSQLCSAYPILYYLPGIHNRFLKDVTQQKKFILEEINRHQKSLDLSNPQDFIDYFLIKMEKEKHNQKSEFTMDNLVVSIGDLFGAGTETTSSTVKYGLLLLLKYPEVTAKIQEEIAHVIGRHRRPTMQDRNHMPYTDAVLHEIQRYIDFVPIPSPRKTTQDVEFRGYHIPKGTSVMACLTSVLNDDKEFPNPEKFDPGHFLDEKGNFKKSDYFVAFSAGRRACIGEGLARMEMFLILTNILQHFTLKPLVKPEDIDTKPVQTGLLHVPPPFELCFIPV
UniProt Q91WK7: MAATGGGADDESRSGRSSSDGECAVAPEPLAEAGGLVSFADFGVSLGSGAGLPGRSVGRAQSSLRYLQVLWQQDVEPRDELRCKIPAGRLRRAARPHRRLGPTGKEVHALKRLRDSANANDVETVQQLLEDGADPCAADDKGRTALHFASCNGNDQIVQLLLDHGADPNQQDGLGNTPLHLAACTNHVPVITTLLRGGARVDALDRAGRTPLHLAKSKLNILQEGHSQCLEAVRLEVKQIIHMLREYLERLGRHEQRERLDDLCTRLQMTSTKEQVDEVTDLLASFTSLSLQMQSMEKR
UniProt Q91YJ3: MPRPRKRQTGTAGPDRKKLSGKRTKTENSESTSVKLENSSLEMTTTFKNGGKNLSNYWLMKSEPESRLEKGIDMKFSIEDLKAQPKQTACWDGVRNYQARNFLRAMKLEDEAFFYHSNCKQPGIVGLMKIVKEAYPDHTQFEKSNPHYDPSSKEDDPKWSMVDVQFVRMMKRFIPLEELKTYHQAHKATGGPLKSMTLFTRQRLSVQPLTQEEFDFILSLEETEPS
UniProt Q91X43: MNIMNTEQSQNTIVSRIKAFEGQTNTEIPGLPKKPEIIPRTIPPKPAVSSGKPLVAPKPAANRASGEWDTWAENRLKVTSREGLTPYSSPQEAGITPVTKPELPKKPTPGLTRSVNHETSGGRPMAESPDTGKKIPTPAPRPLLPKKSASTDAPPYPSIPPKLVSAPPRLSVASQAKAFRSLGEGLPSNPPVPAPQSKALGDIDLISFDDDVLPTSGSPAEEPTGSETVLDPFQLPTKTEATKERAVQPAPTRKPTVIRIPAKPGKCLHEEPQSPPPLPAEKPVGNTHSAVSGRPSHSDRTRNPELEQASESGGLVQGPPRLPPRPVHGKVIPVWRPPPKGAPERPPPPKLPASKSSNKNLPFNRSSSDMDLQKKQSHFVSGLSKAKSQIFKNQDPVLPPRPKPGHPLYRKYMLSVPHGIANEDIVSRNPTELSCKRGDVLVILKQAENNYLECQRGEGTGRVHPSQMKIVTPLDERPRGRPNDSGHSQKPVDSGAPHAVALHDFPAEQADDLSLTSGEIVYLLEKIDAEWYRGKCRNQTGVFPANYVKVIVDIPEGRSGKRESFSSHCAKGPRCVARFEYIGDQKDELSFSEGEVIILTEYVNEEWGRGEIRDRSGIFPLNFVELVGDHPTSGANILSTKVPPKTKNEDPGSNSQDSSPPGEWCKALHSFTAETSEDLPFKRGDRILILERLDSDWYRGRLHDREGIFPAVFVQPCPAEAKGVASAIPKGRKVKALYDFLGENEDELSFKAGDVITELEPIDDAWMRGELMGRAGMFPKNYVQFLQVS
UniProt Q91W63: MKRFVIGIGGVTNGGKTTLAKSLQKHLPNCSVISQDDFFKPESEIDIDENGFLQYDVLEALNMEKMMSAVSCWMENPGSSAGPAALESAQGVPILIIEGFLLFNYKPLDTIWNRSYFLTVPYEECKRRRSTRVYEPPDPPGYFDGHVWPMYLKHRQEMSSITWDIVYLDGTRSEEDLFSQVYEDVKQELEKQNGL
UniProt Q91W40: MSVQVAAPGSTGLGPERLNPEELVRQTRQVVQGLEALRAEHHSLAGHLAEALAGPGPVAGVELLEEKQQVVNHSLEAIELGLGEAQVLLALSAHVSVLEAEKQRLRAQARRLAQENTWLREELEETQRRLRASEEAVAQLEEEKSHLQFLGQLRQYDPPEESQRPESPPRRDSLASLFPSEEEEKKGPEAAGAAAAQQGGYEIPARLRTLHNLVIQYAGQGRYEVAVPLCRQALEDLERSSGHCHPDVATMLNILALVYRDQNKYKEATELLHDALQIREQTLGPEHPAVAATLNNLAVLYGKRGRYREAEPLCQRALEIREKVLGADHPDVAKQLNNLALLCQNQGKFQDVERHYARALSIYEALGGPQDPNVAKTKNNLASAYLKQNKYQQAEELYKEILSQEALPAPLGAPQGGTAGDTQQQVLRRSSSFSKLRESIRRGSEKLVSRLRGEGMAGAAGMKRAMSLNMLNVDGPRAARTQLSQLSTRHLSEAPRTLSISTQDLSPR
UniProt Q91XL9, whole entry: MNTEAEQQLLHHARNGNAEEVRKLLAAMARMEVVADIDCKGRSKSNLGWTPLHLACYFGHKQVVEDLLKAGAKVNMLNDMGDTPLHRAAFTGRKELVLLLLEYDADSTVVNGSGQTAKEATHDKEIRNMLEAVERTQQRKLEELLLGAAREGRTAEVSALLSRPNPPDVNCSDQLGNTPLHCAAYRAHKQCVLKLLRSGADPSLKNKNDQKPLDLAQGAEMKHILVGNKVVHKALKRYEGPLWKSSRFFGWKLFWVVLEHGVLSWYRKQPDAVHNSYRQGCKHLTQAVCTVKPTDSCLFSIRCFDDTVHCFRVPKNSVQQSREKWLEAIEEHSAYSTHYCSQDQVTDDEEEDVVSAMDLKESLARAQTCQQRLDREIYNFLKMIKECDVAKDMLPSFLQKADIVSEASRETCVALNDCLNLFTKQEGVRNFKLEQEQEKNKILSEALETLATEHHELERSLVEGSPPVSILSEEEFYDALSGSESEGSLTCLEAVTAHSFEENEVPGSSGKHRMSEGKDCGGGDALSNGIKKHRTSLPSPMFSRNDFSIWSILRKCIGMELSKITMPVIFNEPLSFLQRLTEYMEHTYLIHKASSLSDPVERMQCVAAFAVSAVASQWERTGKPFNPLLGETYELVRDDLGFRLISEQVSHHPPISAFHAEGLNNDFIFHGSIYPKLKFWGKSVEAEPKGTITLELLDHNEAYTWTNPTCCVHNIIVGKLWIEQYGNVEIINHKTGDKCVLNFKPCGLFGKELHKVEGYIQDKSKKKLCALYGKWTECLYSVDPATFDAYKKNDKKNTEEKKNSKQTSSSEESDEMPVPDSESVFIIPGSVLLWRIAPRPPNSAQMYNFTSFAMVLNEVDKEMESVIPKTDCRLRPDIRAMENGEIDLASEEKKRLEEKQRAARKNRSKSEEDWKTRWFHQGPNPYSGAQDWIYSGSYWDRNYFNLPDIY
UniProt Q91ZE0: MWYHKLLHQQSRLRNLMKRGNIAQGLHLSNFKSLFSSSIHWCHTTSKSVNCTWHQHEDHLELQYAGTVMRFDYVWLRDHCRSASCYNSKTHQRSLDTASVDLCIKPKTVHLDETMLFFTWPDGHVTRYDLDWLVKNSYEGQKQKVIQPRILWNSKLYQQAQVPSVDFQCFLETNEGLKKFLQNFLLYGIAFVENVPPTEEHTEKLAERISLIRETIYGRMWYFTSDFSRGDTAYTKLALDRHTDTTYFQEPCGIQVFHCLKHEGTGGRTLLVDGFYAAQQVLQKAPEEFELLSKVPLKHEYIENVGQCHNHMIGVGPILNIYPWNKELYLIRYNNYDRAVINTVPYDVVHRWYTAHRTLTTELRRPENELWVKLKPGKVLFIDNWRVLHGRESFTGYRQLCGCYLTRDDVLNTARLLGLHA
UniProt Q91WB7: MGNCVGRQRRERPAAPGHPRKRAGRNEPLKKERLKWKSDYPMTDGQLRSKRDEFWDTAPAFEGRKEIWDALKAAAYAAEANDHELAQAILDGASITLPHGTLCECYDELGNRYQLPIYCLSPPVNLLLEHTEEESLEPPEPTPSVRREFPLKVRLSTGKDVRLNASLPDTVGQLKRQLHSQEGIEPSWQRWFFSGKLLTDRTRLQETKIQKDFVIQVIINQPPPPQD
UniProt Q91YN5: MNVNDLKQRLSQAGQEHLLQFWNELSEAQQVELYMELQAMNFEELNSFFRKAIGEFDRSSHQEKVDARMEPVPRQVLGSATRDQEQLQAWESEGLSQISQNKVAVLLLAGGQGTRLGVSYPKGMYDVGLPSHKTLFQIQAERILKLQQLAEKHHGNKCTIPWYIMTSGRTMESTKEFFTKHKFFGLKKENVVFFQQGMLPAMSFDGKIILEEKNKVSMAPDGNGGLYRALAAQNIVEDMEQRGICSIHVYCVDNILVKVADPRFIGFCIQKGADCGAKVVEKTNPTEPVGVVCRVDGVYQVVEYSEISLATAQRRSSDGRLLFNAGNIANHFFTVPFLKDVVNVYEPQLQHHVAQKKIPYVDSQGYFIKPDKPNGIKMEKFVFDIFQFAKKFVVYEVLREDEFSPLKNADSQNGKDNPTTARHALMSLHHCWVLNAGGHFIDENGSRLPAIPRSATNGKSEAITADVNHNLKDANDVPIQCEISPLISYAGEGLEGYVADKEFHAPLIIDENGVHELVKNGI
UniProt Q91XD7: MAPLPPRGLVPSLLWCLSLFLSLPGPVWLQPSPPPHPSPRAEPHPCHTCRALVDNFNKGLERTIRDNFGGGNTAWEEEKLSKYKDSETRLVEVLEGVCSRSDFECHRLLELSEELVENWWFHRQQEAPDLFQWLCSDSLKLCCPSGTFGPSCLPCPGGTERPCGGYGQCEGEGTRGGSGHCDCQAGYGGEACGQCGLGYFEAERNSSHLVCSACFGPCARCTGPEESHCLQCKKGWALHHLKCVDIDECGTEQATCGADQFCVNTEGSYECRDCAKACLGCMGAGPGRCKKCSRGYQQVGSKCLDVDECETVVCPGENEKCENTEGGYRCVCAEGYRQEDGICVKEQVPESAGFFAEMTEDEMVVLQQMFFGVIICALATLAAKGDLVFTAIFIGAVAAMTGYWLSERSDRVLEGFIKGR
UniProt Q91X83: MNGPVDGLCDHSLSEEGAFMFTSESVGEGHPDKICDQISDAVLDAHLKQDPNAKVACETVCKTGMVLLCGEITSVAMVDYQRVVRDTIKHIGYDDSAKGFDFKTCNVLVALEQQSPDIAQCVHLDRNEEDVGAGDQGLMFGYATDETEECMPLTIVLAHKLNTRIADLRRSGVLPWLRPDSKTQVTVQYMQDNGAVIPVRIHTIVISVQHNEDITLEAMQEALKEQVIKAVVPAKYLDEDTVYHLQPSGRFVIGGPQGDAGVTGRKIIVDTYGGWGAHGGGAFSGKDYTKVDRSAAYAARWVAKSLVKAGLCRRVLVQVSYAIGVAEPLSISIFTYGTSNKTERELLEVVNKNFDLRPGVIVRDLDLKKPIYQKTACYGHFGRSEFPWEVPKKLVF
UniProt Q91Z53: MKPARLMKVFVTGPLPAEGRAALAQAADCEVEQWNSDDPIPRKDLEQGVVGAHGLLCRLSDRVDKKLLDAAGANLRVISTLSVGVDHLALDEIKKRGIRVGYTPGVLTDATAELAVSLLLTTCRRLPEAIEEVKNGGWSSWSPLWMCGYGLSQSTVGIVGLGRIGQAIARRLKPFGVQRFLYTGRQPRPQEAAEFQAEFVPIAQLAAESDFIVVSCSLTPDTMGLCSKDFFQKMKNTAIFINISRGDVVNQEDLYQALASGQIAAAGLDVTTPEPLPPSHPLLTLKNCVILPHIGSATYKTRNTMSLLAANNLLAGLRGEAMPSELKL

compound: CN[C@@H]1C[C@H]2O[C@@](C)([C@@H]1OC)n1c3ccccc3c3c4c(c5c6ccccc6n2c5c31)C(=O)NC4 [staurosporine]; test: log2 fold change of tryptic peptide abundance, ligand vs vehicle (limited proteolysis) (log2 ratio); higher = more trypsin-susceptible (destabilized); conditions: ligand concentration: 20 uM; sample: mouse liver crude lysate; replicate design: treated separately

Row | Target | log2 fold change
1 | UniProt Q91Z40 (peptide sequence: DFVLELK, peptide start residue: 182) | 0.143
2 | UniProt Q91YR5 (peptide sequence: LESADQLAEAVR, peptide start residue: 236) | 0.278
3 | UniProt Q91YS8 (peptide sequence: NIHQSVSEQIKK, peptide start residue: 285) | -1.38
4 | UniProt Q91Z22 (peptide sequence: SIDEHDAII, peptide start residue: 187) | -0.0406
5 | UniProt Q91WF3 (peptide sequence: ADTEHRDPYLR, peptide start residue: 427) | -0.58
6 | UniProt Q91V87 (peptide sequence: TIHSGWSR, peptide start residue: 65) | 0.0839
7 | UniProt Q91W64 (peptide sequence: KTTQDVEFR, peptide start residue: 368) | -0.172
8 | UniProt Q91VN0 (peptide sequence: LRCDGEADCQDR, peptide start residue: 1314) | 0.171
9 | UniProt Q91WK7 (peptide sequence: DELRCKIPAGR, peptide start residue: 79) | -0.317
10 | UniProt Q91YJ3 (peptide sequence: LEDEAFFYHSNCK, peptide start residue: 108) | -0.544
11 | UniProt Q91X43 (peptide sequence: VIPVWRPPPK, peptide start residue: 331) | 0.767
12 | UniProt Q91W63 (peptide sequence: FVIGIGGVTNGGK, peptide start residue: 4) | -0.0367
13 | UniProt Q91W98 (peptide sequence: SGEGLGVFQQSSK, peptide start residue: 281) | 0.0973
14 | UniProt Q91WZ8 (peptide sequence: QAQAQHLESYKK, peptide start residue: 149) | 0.224
15 | UniProt Q91VU7 (peptide sequence: SLFPGLETK, peptide start residue: 212) | 0.162
16 | UniProt Q91W40 (peptide sequence: RSSSFSKLR, peptide start residue: 429) | -0.0669
17 | UniProt Q91V36 (peptide sequence: EFILSCLAR, peptide start residue: 279) | 0.145
18 | UniProt Q91XL9 (peptide sequence: CVLNFKPCGLFGK, peptide start residue: 739) | 0.374

Row | Target | log2 fold change
19 | UniProt Q91WL8 (peptide sequence: LAFTVDDNPTKPTTR, peptide start residue: 90) | -0.207
20 | UniProt Q91W34 (peptide sequence: ESWILVR, peptide start residue: 413) | 0.307
21 | UniProt Q91WE1 (peptide sequence: LEEFPAFPR, peptide start residue: 73) | -0.311
22 | UniProt Q91ZE0 (peptide sequence: FDYVWLR, peptide start residue: 71) | -0.278
23 | UniProt Q91WB7 (peptide sequence: QLHSQEGIEPSWQR, peptide start residue: 177) | -0.426
24 | UniProt Q91XS1 (peptide sequence: EAVSSLCSVSSK, peptide start residue: 756) | 0.0512
25 | UniProt Q91VH2 (peptide sequence: FGSAIPIPSLPDK, peptide start residue: 301) | 0.175
26 | UniProt Q91YN5 (peptide sequence: SSHQEKVDAR, peptide start residue: 59) | -0.746
27 | UniProt Q91XD7 (peptide sequence: DNFGGGNTAWEEEKLSK, peptide start residue: 66) | -0.157
28 | UniProt Q91X83 (peptide sequence: SEFPWEVPKK, peptide start residue: 384) | 0.11
29 | UniProt Q91WP0 (peptide sequence: LSSCTYSIR, peptide start residue: 208) | -0.266
30 | UniProt Q91XI1 (peptide sequence: DWGVALVTLHGR, peptide start residue: 443) | 0.339
31 | UniProt Q91VA6 (peptide sequence: IFSLSGTLETVR, peptide start residue: 286) | 0.259
32 | UniProt Q8VIG1 (peptide sequence: KKDAEAHPSEEPVNEGPVTK, peptide start residue: 525) | -0.695
33 | UniProt Q91YL3 (peptide sequence: IFVDTDSDIR, peptide start residue: 224) | 0.233
34 | UniProt Q91VA0 (peptide sequence: MKDPMAIFFTSGTTGYPK, peptide start residue: 213) | -0.775
35 | UniProt Q91Z53 (peptide sequence: KDLEQGVVGAHGLLCR, peptide start residue: 43) | -0.15

2 entries from above, field by field.
UniProt Q91WE1 (peptide sequence: LEEFPAFPR, peptide start residue: 73)
  log2 fold change: -0.311
UniProt Q91Z53 (peptide sequence: KDLEQGVVGAHGLLCR, peptide start residue: 43)
  log2 fold change: -0.15
